Laboratory results reported in paper doi:10.1101/2020.12.23.424112.
Results are given in words; binding and its absence hold for the method and conditions named. In cells and extracts the contact can be indirect. Some results given as binding are weak or reduced against the parent protein; the word gives no strength. Tags and fused reporters may be left off the sequences shown.

By UniProt entry, the sequences of proteins in these tests, tags left out.
UniProt P16370: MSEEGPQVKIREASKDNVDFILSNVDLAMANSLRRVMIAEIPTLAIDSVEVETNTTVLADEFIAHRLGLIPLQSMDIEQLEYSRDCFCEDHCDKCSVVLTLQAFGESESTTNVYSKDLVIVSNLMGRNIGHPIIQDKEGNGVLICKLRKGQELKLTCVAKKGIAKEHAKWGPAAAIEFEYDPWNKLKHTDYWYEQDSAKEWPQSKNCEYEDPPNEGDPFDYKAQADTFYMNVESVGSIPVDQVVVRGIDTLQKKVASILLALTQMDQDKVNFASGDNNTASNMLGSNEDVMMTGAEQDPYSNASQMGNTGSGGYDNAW

Target: Rpb3 subunit of RNA pol II (S. cerevisiae) (UniProt P16370)
Assay: co-IP

B1: Bud27 TAP-tagged version (prefoldin-like Bud27) (protein, UniProt P43573 1-796)
chain: MDLLAASVESTLKNLQDKRNFLSEQREHYIDIRSRLVRFINDNDDGEEEGEGQGMVFGDIIISTSKIYLSLGYEYYVEKTKEEAITFVDDKLKLMEDAIEQFNLKIEEAKKTLDNLNHMEDGNGIEEDEANNDEDFLPSMEIREELDDEGNVISSSVTPTTKQPSQSNSKKEQTPAVGPKEKGLAKEKKSKSFEENLKGKLLKRNDEVKKKVQPSKVDTENVYTFADLVQQMDQQDELEDGYIETDEINYDYDAFENSNFKVNDNYEEDDEDEDEEEYLNHSIIPGFEAQSSFLQQIQRLRAQKQSQDHEREEGDVNKSLKPILKKSSFAENSDKKQKKKQVGFASSLEIHEVENLKEENKRQMQSFAVPMYETQESTGIANKMTSDEFDGDLFAKMLGVQEADEVHEKYKEELINQERLEGEASRSNRRTRVSRFRKDRASKKENTLSTFKQETTRSVENEVVEKEPVVGDIIEKEPVVGDVIEKEPVVGDVIEKEPAVTDIVEREPAVNDIVERKPVVGDIIEKEPTINDIVEKEPEINSKSEFETPFKKKKLKSLQKPRSSKSMKKKFDPKILENISDDDYDDDDDGNKKLLSNKSKNNTDEQDKFPSKIQEVSRSMAKTGATVGSEPVRITNVDYHALGGNLDDMVKAYSLGLYDDDLEEDPGTIVEKLEDFKEYNKQVELLRDEIRDFQLENKPVTMEEEENDGNVMNDIIEHEFPESYTNDEDEVALHPGRLQEEVAIEYRRLKEATASKWQSSSPAAHTEGELEPIDKFGNPVKTSRFRSQRLHMDSKP
binding: binds

B2: Rtr1 TAP-tagged (RNA pol II CTD Ser5P phosphatase Rtr1) (protein, UniProt P40084 1-226)
chain: MATIEDIKETALIPFQKHRQLSMHEAEVITLEIIGLLCDSECKDEKTLKYLGRFLTPDMYQDLVDERNLNKRCGYPLCGKSPERIRDPFSMNDTTKKFLLENNPYAYLSHYCSKFHFRCSQFYQVQLSDEALFARTGVHLFEDPEQDKHDIDFKVTLFEELLREKASEEDIKSLISGLKKLGLNPDSGTTEKDDTELEDDLSKWLAQIKIVENDNPSILGDFTRED
binding: binds
